Measurements reported in PubChem BioAssay AID1508597 (Cure First, 2020).
In all, the deposit lists about 2,100 reagents; shown is a random part of them. 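Calls flag viability under 80% in either arm, not effects specific to rucaparib; the reference for percent is not stated.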 A number with no mark means an inactive call. No sequences are given here. The record does not give: the 100% reference.

Screen: 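Survival screen with siRNA in ovarian cancer cells derived from patients, with or without rucaparib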 (primary screen)
System: human ovarian carcinoma lines grown from tumours: OCI-P5x (papillary serous) and OCI-C5x (clear cell)
Reagents: siRNA pool against human genes, 1.25 pmol siRNA per well
Duration: 72 h or 96 h, depending on the cell culture
Conditions: rucaparib 20 µM (about IC30) or vehicle, present until read-out
Read-out: 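ATP luminescence measured at 72 or 96 h according to the culture, then normalised and expressed as percent viability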
Scale: viability, normalised: higher = more viable cells remaining
Active means: 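a well counts as a hit if its normalised viability is under 80 percent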
Meaning of the calls: active = viability under 80%; inactive = viability 80% or more

With H4C6, rucaparib or vehicle Rucaparib, cell line OCI-C5x (clear cell), technical replicate 1, what was measured?
viability, normalised (%): 48.2 (active)

With H4C6, rucaparib or vehicle Rucaparib, cell line OCI-C5x (clear cell), technical replicate 2, what does the deposit list?
viability, normalised (%): 32.8 (active)

What did the screen give for H4C6, rucaparib or vehicle Rucaparib, cell line OCI-C5x (clear cell), technical replicate 3?
viability, normalised (%): 52.3 (active)

For H4C6, rucaparib or vehicle Rucaparib, cell line OCI-P5x (serous), technical replicate 1, what was measured?
viability, normalised (%): 67.8 (active)

What did the screen give for H4C6, rucaparib or vehicle Rucaparib, cell line OCI-P5x (serous), technical replicate 2?
viability, normalised (%): 65.7 (active)

For H4C6, rucaparib or vehicle Rucaparib, cell line OCI-P5x (serous), technical replicate 3, what was measured?
viability, normalised (%): 64.3 (active)

How did the screen score H4C6, rucaparib or vehicle Vehicle, cell line OCI-C5x (clear cell), technical replicate 1?
viability, normalised (%): 41.6 (active)

For H4C6, rucaparib or vehicle Vehicle, cell line OCI-C5x (clear cell), technical replicate 2, what was measured?
viability, normalised (%): 45.8 (active)

How did the screen score H4C6, rucaparib or vehicle Vehicle, cell line OCI-C5x (clear cell), technical replicate 3?
viability, normalised (%): 46.8 (active)

What did the screen give for H4C6, rucaparib or vehicle Vehicle, cell line OCI-P5x (serous), technical replicate 1?
viability, normalised (%): 74.7 (active)

What is on record for H4C6, rucaparib or vehicle Vehicle, cell line OCI-P5x (serous), technical replicate 2?
viability, normalised (%): 77.4 (active)

Which result is listed for H4C6, rucaparib or vehicle Vehicle, cell line OCI-P5x (serous), technical replicate 3?
viability, normalised (%): 86.3
